# The campaign covered roughly 360,000 compounds. About 9,100 (2.5%) were called active. Inconclusive means that the source gave no clear call. Such entries were picked first, then a sample of the others. Rule as the data show it: active = max response below about -50%; inconclusive = no clear call, values can overlap the other calls; inactive = above that.
# Chains of the proteins cited; added tags and fusions are not shown.
# UniProt P35462, whole entry, looked up: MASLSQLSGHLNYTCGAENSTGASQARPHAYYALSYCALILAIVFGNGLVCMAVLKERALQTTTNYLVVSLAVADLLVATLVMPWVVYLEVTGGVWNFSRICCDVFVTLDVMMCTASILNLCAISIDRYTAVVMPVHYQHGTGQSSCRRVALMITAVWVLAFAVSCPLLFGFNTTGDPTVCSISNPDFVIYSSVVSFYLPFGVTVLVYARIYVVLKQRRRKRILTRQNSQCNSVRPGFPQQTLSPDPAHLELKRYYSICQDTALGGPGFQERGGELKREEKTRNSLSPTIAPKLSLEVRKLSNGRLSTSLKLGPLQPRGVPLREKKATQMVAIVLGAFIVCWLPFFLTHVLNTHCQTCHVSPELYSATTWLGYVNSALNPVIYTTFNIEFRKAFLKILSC
# Target: D(3) dopamine receptor (Homo sapiens) (UniProt P35462)
# Assay: qHTS of D3 Dopamine Receptor Antagonist: qHTS
# Details: D3R cells, DiscoveRx beta-arrestin luminescence, antagonist mode; stronger effect = lower value
# In short: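 Cells expressing the human receptor were seeded at 1500 cells/well, incubated overnight at 37 degrees C in 5% CO2, then exposed to library compounds with dopamine controls for 90 minutes at 37 degrees C before luminescent detection.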
# % is scaled to controls: 0 for no effect and ±100 for the full control effect.
row,SMILES,"max response, negative = inhibition"
1,CCOc1ccc(CCN2C(=O)C(=O)N([C@@H](CC(C)C)CN3CCC[C@@H]3CN3C(=O)C(=O)NC[C@@H]3Cc3ccccc3)C[C@@H]2CC(C)C)cc1,inconclusive: -46.2%
2,COc1cc(NC(C)CCCNC(C)C)c2ncccc2c1OC (stereo not given),inconclusive: -41.4%
3,N#Cc1cn(CCOc2ccc(F)cc2)c2ccccc12,inactive: -16.6%
4,Cc1cccc(N=C2NC(=O)CS2)c1,inconclusive: -39.4%
5,CC(=O)c1ccc(NC(=O)C(C)N2CCN(C/C=C/c3ccccc3)CC2)cc1 (stereo not given),inconclusive: -36.4%
6,COc1ccc(Cn2nnnc2C(c2cc3cc(C)cc(C)c3[nH]c2=O)N2CCOCC2)cc1 (stereo not given),inconclusive: -35%
7,CCOC(=O)C(NC(=O)CC)(Nc1ccccc1OC)C(F)(F)F (stereo not given),inconclusive: -36.8%
8,Cc1ccc(C)c(N2N=C(C(=O)OCc3nnc(-c4ccccc4Br)o3)CCC2=O)c1,inconclusive: -31.9%
9,Cc1ccc2nc3c(cc(C(=O)NCCN4CCOCC4)c(=N)n3CCCN3CCOCC3)c(=O)n2c1,inactive: 2.28%
10,CCOc1ccc(NC(=O)c2ccc(NC(=S)NC3CCCCC3)cc2)cc1,active: -68.3%
11,O=C(Cn1cnc([N+](=O)[O-])c1)Nc1ccc(Cl)cc1Cl,inconclusive: -32.2%
12,Fc1cccc2sc(Nc3nc4cc5c(cc4s3)OCO5)nc12,inactive: -9.6%
13,CCN1CCN(C(=O)c2ccc3c(c2)c(C)c(C)n3Cc2ccccc2)CC1,inconclusive: -32.1%
14,COc1ccc(/C=C2\CCCC(C(=O)C(F)(F)F)=C2O)cc1,inconclusive: -48.5%
15,CC(C)CCNC(=O)c1ccc2nc[nH]c2c1,inconclusive: -36.2%
16,CC(C)(C)OC(=O)C[C@@H]1C/C=C\C[C@H](CC(=O)N[C@@H](CO)Cc2ccccc2)C(=O)N[C@H](C(C)(C)C)COC1=O,inconclusive: -39.8%
17,CC(C)c1ccc(Nc2nc(N3CCOCC3)nc(N3CCOCC3)n2)cc1,active: -73.6%
18,NC1=NC2=C(CCCC2)C2(CCCCC2)S1,inactive: 15.8%
19,O=c1c2ccccc2sn1-c1nccs1,inconclusive: -44.1%
20,Cc1cccc(NC(=O)c2ccc(Cl)c(S(=O)(=O)N3CCc4ccccc43)c2)n1,inactive: -2.2%
21,O=C(Nc1ccccc1Oc1cccnc1)C1CCCN(C/C=C/c2ccc(F)cc2)C1 (stereo not given),inconclusive: -31.3%
22,COc1ccc(Oc2nnnn2-c2ccccc2)cc1,inactive: 4.69%
23,Cn1cc(-c2csc(C(O)c3ccc(F)c(F)c3)n2)cn1 (stereo not given),inconclusive: -34.3%
24,CCCOC(=O)CSC1=C(C#N)C(c2ccccc2OC)C(C#N)C(=O)N1 (stereo not given),inconclusive: -38.9%
25,Nc1cc([N+](=O)[O-])ccc1Nc1ccccc1,inconclusive: -40.1%
26,O=C(Cc1ccc(Cl)cc1)N/N=C1\CCCc2ccccc21,inconclusive: -49.1%
27,CCC1CCCCN1C(=O)CSc1nc2ccsc2c(=O)n1Cc1ccccc1 (stereo not given),inconclusive: -44.2%
28,O=C(NCCN1CCOCC1)C1(C(F)(F)F)C/C(=C\Cc2ccccc2)CCCO1 (stereo not given),inconclusive: -30.1%

# Part of the list above in order of molar mass, falling:
row,SMILES,"max response, negative = inhibition"
28,O=C(NCCN1CCOCC1)C1(C(F)(F)F)C/C(=C\Cc2ccccc2)CCCO1 (stereo not given),inconclusive: -30.1%
14,COc1ccc(/C=C2\CCCC(C(=O)C(F)(F)F)=C2O)cc1,inconclusive: -48.5%
3,N#Cc1cn(CCOc2ccc(F)cc2)c2ccccc12,inactive: -16.6%

# More entries.

row,SMILES,"max response, negative = inhibition"
1,Cc1ccc2c(cnn2C(=O)CCC(=O)N2CCCCC2)c1,inactive: -4.02%
2,O=C(NC(c1ccc(F)cc1)c1cnccn1)C1CCN(CCOc2ccc(Cl)cc2Cl)CC1 (stereo not given),active: -71%
3,CCc1ccc(C(=O)Nc2ccc(C)c(NS(C)(=O)=O)c2)cc1,inconclusive: -42.1%
4,CCOC(=O)c1ccccc1NC(=O)/C=C/c1cc(OC)c(OC)c(OC)c1,inactive: 8.88%
5,Cc1cc(C)n(S(=O)(=O)c2cc(C(=O)O)c(Cl)cc2Cl)n1,inconclusive: -31.1%
6,CCOC(=O)C1=C(C)N(c2ccccc2)C(=O)/C1=C\c1ccc(O)c(OC)c1,inconclusive: -41.3%
7,Cc1cc(N2CCCCC2)nc(N2CCCCC2)n1,inconclusive: -45.1%
8,OCC1(Cc2ccc(F)cc2)CCCN(Cc2ccc(F)cc2Cl)C1 (stereo not given),active: -61.1%
9,COc1cccc(NC(=O)Cn2nnc(C(=O)Nc3ccccc3)c2N)c1,inactive: -21%
10,Cc1c(NC(=O)c2noc3c2CCc2ccccc2-3)c(=O)n(-c2ccccc2)n1C,inactive: 20.5%
11,COCCc1ccc(OC2(C)CCN(Cc3cccn3-c3nccs3)C2)cc1 (stereo not given),inconclusive: -30.1%
12,COc1ccccc1C(=O)N/N=C(\C)CC(=O)Nc1ccc(Cl)cn1,inconclusive: -30.9%
13,O=C(Nc1cccc2nsnc12)c1cccnc1,inconclusive: -32.8%
14,Cc1ccc2oc(=O)n(CCOc3ccccc3C)c2c1,inconclusive: -32.7%
15,O=C1CCN(Cc2ccccc2)CCN1[C@H](CSc1ccccc1)c1ccccc1,inconclusive: -35.6%
16,CC1(C)Cc2c(ccc3ccccc23)/C(=C/C#N)N1,active: -273%
17,COc1ccc(C2C(C(=O)N3CCOCC3)=C(C)NC3=C2C(=O)CC(C)(C)C3)c(OC)c1 (stereo not given),inconclusive: -38.9%
18,N#C/C(=C\c1c(Cl)cccc1Cl)c1nc2ccccc2o1,inconclusive: -34.7%
19,O=C(Cc1cccc(NC(=O)C2CCCN(C(=O)CCc3ccccc3)C2)c1)Nc1ccc(C(=O)N2CCCCC2)cc1 (stereo not given),active: -51.6%
20,CCN(CC)S(=O)(=O)c1ccc(NC(=O)C2c3ccccc3Oc3ccccc32)cc1,inconclusive: -41.1%
21,CNC(=O)C1CCCN1S(=O)(=O)c1ccc(OC)cc1 (stereo not given),inconclusive: -32.3%
22,O=C(c1ccc([N+](=O)[O-])cc1)N1CCN(C(=O)c2cccs2)CC1,inconclusive: -45.1%
23,CC(C)NC(=O)C1CCN(C(=O)c2cc3sccc3n2Cc2ccc(F)cc2)CC1,inconclusive: -31%
24,OC(CNCCc1ccccc1)COc1ccc(OCC(O)CNCCc2ccccc2)cc1 (stereo not given),active: -51.6%
25,COc1ccc([C@H]2CN(c3ccc(OC)cc3)C(=O)[C@@H]2CC(=O)Nc2ccc(Br)cc2)cc1,inactive: 21.6%
26,COCCOCC(O)CN1CCN(c2ccccc2)CC1 (stereo not given),active: -77.8%
27,COc1ccccc1CNS(=O)(=O)c1ccc2c(c1)CC(C)N2C(=O)C1CCC1 (stereo not given),inactive: 0.876%

# Reference: PubChem BioAssay AID652054 (National Center for Advancing Translational Sciences (NCATS), 2013)
